Values from PubChem BioAssay AID720505 (Drosophila RNAi Screening Center, 2013)
Screen: 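Genes needed for store-operated calcium entry in fly cells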 (primary screen). Cell system: Drosophila S2R+ cells. Reagent: long dsRNA against Drosophila genes. Treatment: thapsigargin (2 µM) in calcium-free buffer to empty internal stores, then 2 mM calcium added back. Detection: 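Stores emptied by 2 µM thapsigargin without calcium, then 2 mM calcium re-added; fluo-4 fluorescence followed by FLIPR in 384-well plates, per-well averaged endpoint, raw; two screen passes, some wells retested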. Scale: calcium signal and retest calcium signal: higher = more calcium entry after store depletion. Call rule: 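Knock-downs counted as hits when calcium entry dropped relative to STIM1 positive and Rho1 negative controls present on each plate; roughly 1500 genes called, with reductions of differing size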. Calls: active = called as lowering calcium entry; inactive = not called.
In all, the deposit lists about 20,000 reagents; below is a random part of those with a known target gene and a result. Of all reagents, about 2,100 (10%) were called active. 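Raw plate signals without normalisation; calls rest on control-based scores that were not deposited; replicate 2 separates called from uncalled poorly.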 A number with no mark means an inactive call. The numbers tell different reagents against one gene apart. Names joined by + are all predicted targets of the reagent. No sequences are given here. Not stated in the record: the amount of reagent, the time to read-out.

gene	reagent no.	calcium signal, replicate 1	calcium signal, replicate 2	retest calcium signal, replicate 1	retest calcium signal, replicate 2
Fum3 (Fumarase 3)	1	109	123		
Nrd1 (Nardilysin)	1	136	120		
CG43894	1	127	66.3		
Sf3b5 (Splicing factor 3b subunit 5)	1	26.5 (active)	102		
dve (defective proventriculus)	1	62	241		
CG12715	1	84.4	86.7		
CG30289	1	88.1	9391		
HERC2 (HECT and RLD domain containing protein 2)	1	119	125		
PGRP-SA (Peptidoglycan recognition protein SA)	1	69	93.3		
RabX5	1	81.7	93.9		
CG6052	1	74.9	126		
CG31784	1	75.8	177		
CG10631	1	97.1	105		
CG5989	1	105	85		
tnc (tenectin)	1	179	98.5		
CG18814	1	147	213		
CR32011 + CR32010 + PlexB + 1 more	1	118	110		
Lis-1 (Lissencephaly-1)	1	115	145		
INPP5E (Inositol polyphosphate 5-phosphatase E)	1	106	78		
Cyp12a5 (Cytochrome P450 12a5)	1	155	133		
CG10311	1	133	188		
CG31266	1	164	177		
CG10431	1	122	92.2		
Apc2 (Adenomatous polyposis coli 2)	1	195	174		
Membrin	1	121	86.5		
yellow-c + CIAPIN1	1	118	110		
CG17999	1	147	85.3		
Sr-CII (Scavenger receptor class C, type II)	1	113	154		
CG9646	1	140	114		
CG42583	1	134	167		
Rbcn-3A (Rabconnectin-3A)	1	68.8 (active)	260		
CG12688 (retired record)	1	223	128	7346	134
CG12688 (retired record)	2	251	162	6985	145
Scgbeta (Sarcoglycan beta)	1	142	151		

Just “calcium signal, replicate 2”, for 5 of the entries above:
tnc (tenectin): 98.5
CG18814: 213
CR32011 + CR32010 + PlexB + 1 more: 110
Lis-1 (Lissencephaly-1): 145
INPP5E (Inositol polyphosphate 5-phosphatase E): 78
